For assay [1], the target named is FAK P875A/P881A (AA) mutant (UniProt Q00944). Nature of the assay: co-IP; 1 mg lysate (RIPA buffer) of SCC FAK-WT, FAK P875A/P881A or FAK -/- cells, or of Ambra1 +/+ and -/- MEFs, with antibody or antibody-agarose at 4°C overnight; beads washed three times in lysis buffer and once in 0.6 M LiCl; western blot; in some experiments after IFITM3 siRNA.
For assay [2], the target named is focal adhesion kinase (FAK), wild type, in SCC FAK-WT cells (UniProt Q00944). The assay is described as above.

By UniProt entry, the sequences of proteins in these tests, tags left out. Where a name states a change or a piece, a line headed by the entry shows the natural chain unless it says otherwise.
UniProt Q00944: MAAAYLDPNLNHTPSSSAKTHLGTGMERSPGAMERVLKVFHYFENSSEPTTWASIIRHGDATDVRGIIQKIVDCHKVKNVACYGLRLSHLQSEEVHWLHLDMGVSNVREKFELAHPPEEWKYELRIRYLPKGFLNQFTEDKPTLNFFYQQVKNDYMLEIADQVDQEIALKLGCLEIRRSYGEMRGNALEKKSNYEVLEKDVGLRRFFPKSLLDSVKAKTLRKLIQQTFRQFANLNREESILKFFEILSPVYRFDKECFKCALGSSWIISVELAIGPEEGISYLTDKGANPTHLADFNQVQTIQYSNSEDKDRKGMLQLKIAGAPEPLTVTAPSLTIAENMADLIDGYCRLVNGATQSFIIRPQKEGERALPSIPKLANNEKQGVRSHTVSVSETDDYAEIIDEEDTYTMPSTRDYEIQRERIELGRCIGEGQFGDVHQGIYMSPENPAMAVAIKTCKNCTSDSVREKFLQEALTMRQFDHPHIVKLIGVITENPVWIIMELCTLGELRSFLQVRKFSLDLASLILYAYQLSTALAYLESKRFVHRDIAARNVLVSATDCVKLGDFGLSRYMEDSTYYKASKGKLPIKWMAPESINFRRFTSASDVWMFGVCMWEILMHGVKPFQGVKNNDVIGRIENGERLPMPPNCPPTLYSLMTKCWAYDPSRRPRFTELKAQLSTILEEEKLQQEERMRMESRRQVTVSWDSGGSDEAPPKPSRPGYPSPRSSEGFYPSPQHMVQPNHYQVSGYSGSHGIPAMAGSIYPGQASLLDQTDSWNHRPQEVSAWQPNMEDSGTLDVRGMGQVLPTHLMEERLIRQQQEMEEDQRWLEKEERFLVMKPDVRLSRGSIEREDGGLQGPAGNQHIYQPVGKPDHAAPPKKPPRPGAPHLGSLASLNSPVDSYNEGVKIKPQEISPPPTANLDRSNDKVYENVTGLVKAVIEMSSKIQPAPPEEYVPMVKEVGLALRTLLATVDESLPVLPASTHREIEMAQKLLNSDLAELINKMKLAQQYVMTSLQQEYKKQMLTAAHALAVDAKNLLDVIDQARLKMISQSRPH

These are yes or no findings as the source states them, for the method shown. In cells and extracts the contact can be indirect. Some results given as binding are weak or reduced against the parent protein; the word gives no strength.

B1: p130Cas (protein, UniProt Q61140 1-874)
chain: MTVPNVLAKALYDNVAESPDELSFRKGDIMTVLERDTQGLDGWWLCSLHGRQGIVPGNRLKILVGMYDKKPVGPGPGPPATPPQPQPSLPQGVHAPVPPASQYSPMLPTAYQPQSDNVYLVPTPSKTQQGLYQAPGPNPQFQSPPAKQTSTFSKQTPHHSFPSPATDLYQVPPGPGSPAQDIYQVPPSAGIGHDIYQVPPSLDTRGWEGTKPPAKVVVPTRVGQGYVYEAAQTEQDEYDTPRHLLAPGPQDIYDVPPVRGLLPNQYGQEVYDTPPMAVKGPNGRDPLLDVYDVPPSVEKGLLSSSHHSVYDVPPSVSKDVPDGPLLREETYDVPPAFAKPKPFDPTRHPLILAAPPPDSPAAEDVYDVPPPAPDLYDVPPGLRRPGPGTLYDVPRERVLPPEVADGSVVDDGVYAVPPPAEREAPTDGKRLSASSTGSTRSSQSASSLEVVVPGREPLELEVAVESLARLQQGVSTTVAHLLDLVGSASGPGGWRGTSEPQEPPAQDLKAAVAAVHGAVHELLEFARGAVSNATHTSDRTLHAKLSRQLQKMEDVYQTLVVHGQVLDSGRGSPGFTPEDLDRLVACSRAVPEDAKQLASFLHGNASLLFRRTKAPGPGPEGSSSLHPNPTDKASSIQSRPLPSPPKFTSQDSPDGQYENSEGGWMEDYDYVHLQGKEEFEKTQKELLERGNIMRQGKGQLELQQLKQFERLEQEVSRPIDHDLANWTPAQPLVPGRTGGLGPSDRQLLLFYLEQCEANLTTLTDAVDAFFTAVATNQPPKIFVAHSKFVILSAHKLVFIGDTLSRQAKAADVRSQVTHYSNLLCDLLRGIVATTKAAALQYPSPSAAQDMVDRVKELGHSTQQFRRVLGQLAAA
Turning to B1, the binding result in assay [1] and in assay [2] was “binds” in each case.

Source of the values: article PMC5376188.
